Values joined by “and” are separate entries in the source; they are usually repeats but may differ in a detail not shown here. Equal entries are not always repeated. Out of some 350,000 compounds screened, about 6,000 (1.7%) were called active. The shares of active, inactive and inconclusive entries below differ from those in the screen. Rule as the data show it: active = CPE inhibition above about 20% (passing the limit was not always enough); inconclusive = no clear call, values can overlap the other calls; tested in BHK-21 cells.
Experiment: protection of cells from dengue 2 killing – plate reader, single concentration, primary screen (AID 651640);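 also: 0% = median of neutral control wells and 100% = median of positive control wells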
Settings: DENV2-infected cells, cytopathic effect rescue, at 9.99 µM, hits give high values

SMILES | CPE inhibition
C/C(=N\NC(=O)COc1ccccc1[N+](=O)[O-])c1cccs1 | inactive: 19.6%
CC(C)NC(=O)C1(C)CCN1C(=O)c1ccccc1Oc1ccccc1 (centres undefined) | inconclusive: 56.6%
C[C@@H]1CN([C@@H](C)CO)C(=O)c2cccc(NC(=O)c3ccc(-c4nccs4)cc3)c2O[C@H]1CN(C)S(=O)(=O)c1ccc(Cl)cc1 | inactive: 16.5%
CN1CCN(c2ccc(CNC[C@H]3O[C@@H](n4cnc5c(=O)[nH]c(N)nc54)[C@H](O)[C@@H]3O)c(F)c2)CC1 | inactive: -11.3%
COc1ccc(S(=O)(=O)N(C)C[C@@H]2Oc3ccc(NC(=O)Cc4ccccc4)cc3C(=O)N([C@@H](C)CO)C[C@@H]2C)cc1 | inactive: 19.5%
COc1ccc(S(=O)(=O)N2CCN(C(=O)C3CCCO3)CC2)cc1 (centres undefined) | inconclusive: 26%
CCOc1ccc(CN2CCN(Cc3cccn3-c3cccnc3)CC2CCO)cc1 (centres undefined) | inactive: -1.03%
O[C@H]1CN(Cc2cccs2)[C@@H](c2ccccc2)C[C@@H]1n1cc(-c2ccc(F)cc2)nn1 | inactive: 19.3%
Cc1noc(C)c1NC(=O)N(C)C[C@H]1Oc2ccc(NS(=O)(=O)c3cccs3)cc2CC(=O)N([C@@H](C)CO)C[C@@H]1C | inconclusive: 55.7%
Cc1c(NC(=O)CSc2ncnc3c2cnn3-c2ccccc2)c(=O)n(-c2ccccc2)n1C | inconclusive: 69.8%
C[C@H](CO)N1C[C@H](C)[C@H](CN(C)C(=O)Nc2ccc(C(F)(F)F)cc2)Oc2c(NC(=O)c3nc4ccccc4s3)cccc2C1=O | inconclusive: 21.8%
COc1ccc2c3c(n(C)c2c1)[C@H](CO)NCC31CN(S(=O)(=O)c2cccc(F)c2)C1 | inconclusive: 24.4%
CN(C)CCCN(C(=O)/C=C/c1cccs1)c1nc2ccc(F)cc2s1 | inactive: -3.88%
CC(C)(C)NC(=O)C(c1cccc2ccccc12)n1c(=O)c(-c2ccccc2)nc2ccccc21 (centres undefined) | active: 27.1%
CN(Cc1cccc(F)c1)C(=O)C1CC(=O)N(Cc2ccco2)C1 (centres undefined) | inconclusive: 54.1%
C[C@@H]1CN([C@@H](C)CO)C(=O)c2cccc(NS(C)(=O)=O)c2O[C@H]1CN(C)Cc1ccc2c(c1)OCO2 | inconclusive: 41.1%
C[C@@H]1CN([C@@H](C)CO)C(=O)c2cc(C#CCc3ccccc3)cnc2O[C@@H]1CN(C)Cc1cccc(C(=O)O)c1 | inactive: 1.28%
COc1ccc2c3c([nH]c2c1)[C@H](CO)N(C(=O)c1ccc(F)cc1)CC31CN(C(=O)Nc2cccc(F)c2)C1 | inactive: -7.12%
CN(C)C(=O)C[C@@H]1CC[C@@H]2[C@H](COC[C@@H](O)CN2CC2CC2)O1 | inconclusive: 52.1%
O=C(Nc1ccc(-c2ccccc2)cc1)[C@H]1[C@H](CO)[C@H]2Cn3c(cccc3=O)[C@@H]1N2Cc1cncnc1 | inconclusive: 57.1%
C[C@H](CO)N1C[C@H](C)[C@H](CN(C)Cc2ccc(C(=O)O)cc2)Oc2ccc(NS(=O)(=O)c3cn(C)cn3)cc2C1=O | active: 40.9%
NC(=O)CSc1nnc(-c2ccco2)n1-c1ccc(F)cc1 | inconclusive: 42.8%

SMILES | CPE inhibition
CNC[C@@H]1Oc2c(NC(=O)Nc3ccc(C(F)(F)F)cc3)cccc2C(=O)N([C@H](C)CO)C[C@@H]1C | inconclusive: 31.8%
COc1ccc(/C=N/NC(=O)c2cccc(C(=O)N/N=C/c3ccc(OC)c(OC)c3)n2)cc1OC | inconclusive: 20.3%
COc1cc(/C=N/NC(N)=O)ccc1OC(=O)c1ccco1 | inconclusive: 22.8%
Cc1ccc(S(=O)(=O)N[C@@H]2C=C[C@@H](CC(=O)N3CCC(Cc4ccccc4)CC3)O[C@H]2CO)cc1 | inactive: 10.5%
Cc1ccccc1S(=O)(=O)N1C[C@@H](O)COC[C@@H]2O[C@H](CC(=O)N3CCCCC3)CC[C@H]21 | active: 110%
CC(C)c1onc(C(=O)N2CCN(Cc3ccccc3)CC2)c1[N+](=O)[O-] | active: 168%
C[C@@H]1CCCCO[C@@H](CN(C)C(=O)Nc2cccc3ccccc23)[C@H](C)CN([C@@H](C)CO)C(=O)c2cc(NC(=O)Nc3ccccc3)ccc2O1 | inconclusive: 46.4%
COc1cccc(NC(=S)N2CCCN(Cc3ccc(F)cc3)C2)c1 | inconclusive: 23.8%
COC(=O)c1c(C(=O)OC)c(-c2cccc(F)c2)n2c1CS(=O)C2 (centres undefined) | inconclusive: 31.5%
CCOC(=O)N1CCN(C(=O)c2ccc(Cn3c(=S)[nH]c4cc(OCC)c(OCC)cc4c3=O)cc2)CC1 | inconclusive: 22.2%
COc1cccc(C(=O)Nc2ccc3c(c2)C(=O)N(C)[C@H]2CC[C@@H](CC(=O)N[C@@H](C)c4ccccc4)O[C@@H]2CO3)c1 | inconclusive: 84.5%
O=C(NCC[C@@H]1CC[C@@H](NS(=O)(=O)c2cccc(F)c2)[C@@H](CO)O1)Nc1cc(F)ccc1F | active: 24.2%
O=C(COc1ccccc1O)NCCN1CCOCC1 | inconclusive: 62.1%
COCOc1cccc(CN2CCC(C)(Oc3ccc(C(C)=O)cc3)C2)c1 (centres undefined) | inconclusive: 40.9%
COc1ccc(C(=O)N(C)C(C)c2nccs2)cc1OC1CCN(C(C)=O)CC1 (centres undefined) | inconclusive: 69.5%
CCN1CCN(Cc2ccc(NC(=O)c3cc(NC(=O)N4CCNC4=O)cc(OC)c3)cc2C(F)(F)F)CC1 | inactive: -19.3% and inactive: 10.2%
O=C(Nc1ccc(Cl)cc1)C1Cc2c(-c3ccc4c(c3)OCO4)ccnc2O1 (centres undefined) | inconclusive: 41.4%
C[C@H](CO)N1C[C@H](C)[C@@H](CN(C)C(=O)Cc2ccncc2)Oc2cc(C#Cc3ccccc3F)ccc2S1(=O)=O | inconclusive: 31.7%
CCC(=O)N1CC2(C1)CN(C(=O)CN1CCOCC1)[C@H](CO)c1[nH]c3cc(OC)ccc3c12 | active: 29.9%
Cc1ccccc1S(=O)(=O)N1C[C@@H]2N[C@H](C1)C2c1ccc(-c2cccc(C#N)c2)cc1 (some centres undefined) | inconclusive: 29.1%
CN1C(=O)c2cc(NC(=O)c3cccc(F)c3)ccc2OC[C@H]2O[C@@H](CC(=O)N3CCc4ccccc4C3)CC[C@H]21 | active: 31.5%

A portion taken from the entries so far, as a working copy:
SMILES | CPE inhibition
CC(C)NC(=O)C1(C)CCN1C(=O)c1ccccc1Oc1ccccc1 (centres undefined) | inconclusive: 56.6%
C[C@@H]1CN([C@@H](C)CO)C(=O)c2cccc(NC(=O)c3ccc(-c4nccs4)cc3)c2O[C@H]1CN(C)S(=O)(=O)c1ccc(Cl)cc1 | inactive: 16.5%
CN1CCN(c2ccc(CNC[C@H]3O[C@@H](n4cnc5c(=O)[nH]c(N)nc54)[C@H](O)[C@@H]3O)c(F)c2)CC1 | inactive: -11.3%
